# Results of single-concentration screens

The values are deposited in ChEMBL (CHEMBL3988442, “University of Dundee, Small-Polar-MMV Screening Library” (2021)).

Values are the deposited “Percent Effect”, in %.
How 0% and 100% were set is not recorded. Most values in the screen are low, and negative values occur.
This is an unselected part of the compounds tested.
Two or more numbers in one place are separate tests of the same structure; such repeats can differ widely.

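Phenotypic screen: M. tuberculosis growth, glucose 7H9 medium, 3 days; the read-out is not stated. Compounds at 50 µM. Direction is inferred from retests: higher values go with more growth inhibition. Of about 69,000 compounds tested this way, about 760 (1.1%) reached 50% or more in at least one test.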

Result for CC(C)Cc1cc(NC(=O)c2ccc[nH]2)n(C)n1 was 1.639%.
Result for CSCC[C@H](NC(C)=O)c1nc(CCc2ccccc2)n[nH]1 was -3.062%.
Result for COc1ccc2nc(NC(=O)c3c(C(=O)O)cnn3C)sc2c1 was 4.286%.
Result for Cc1ccc(OCC(=O)N2CCCC(n3nc(C)nc3C)C2)cc1 (stereo not given) was 22.18%.
Result for CC(C)C(=O)N1CCCC2(CC(C(=O)NCc3cccnc3)=NO2)C1.O=C(O)C(F)(F)F (stereo not given) was -3.927% & -1.37%.
Result for O=C(N1CCCC1)N1CCC(Nc2ccncn2)CC1 was 3.888%.
Result for Cc1cccc(NC(=O)NCC2(N3CCOCC3)CCSC2)c1 (stereo not given) was -15.18% & -2.489%.
Result for O=C(c1cc(C2CC2)[nH]n1)N1CCN(Cc2ccncc2)CC1 was -17.64% & -2.127%.
Result for COCCN(C)C(=O)Nc1ccc2c(ccn2CC(=O)N(C)C)c1 was -29.78%.
Result for Cc1nc2ccccc2nc1CN(C)C1CCCN(c2cccnn2)C1 (stereo not given) was 4.709%.
Result for O=C(NCC1COCc2c(-c3ccncc3)nnn2C1)[C@H]1CCCO1.O=C(O)C(F)(F)F (stereo not given in full) was 0.5576% & -19.31%.
Result for CC(C1CCN(Cc2ccccc2OC(F)F)CC1)N1CCOCC1 (stereo not given) was 9.304%.
Result for CCn1cc(CN2CCCCC2CCn2ccnc2C)cc1C#N (stereo not given) was -22.21%.
Result for COCc1nc(CNC2CCCC(C)(C)C2)no1 (stereo not given) was 29.14%.
Result for O=c1cc2c(nn1CN1CCSCC1)CCC2 was -20.45%.
Result for CCOC(=O)CNC(=O)c1scnc1C was -5.752%.
Result for CNc1cncc(C2CCCN2C(=O)c2ccc3oc(C)cc3c2)n1 (stereo not given) was 16.65%.
Result for COCCCNC(=O)N1CCC(CNC(=O)c2cnn(C)c2)CC1 was 26.23%.
Result for COc1ccc(CNc2ncnc3c2NC(=O)CN3)cc1 was -19.72%.
Result for Cc1nc(C)c2c(n1)CCN(Cc1nccn1C)CC2.O=C(O)C(F)(F)F was -13.72%.
Result for Cl.c1cc(CC2CCCNC2)nc(NCCc2cnccn2)c1 (stereo not given) was 28.73%.
Result for Cn1cc(CCCN2CCN(C(=O)c3cccc(O)c3)CC2)cn1 was -15.1%.
Result for CC(C)CN1CCc2[nH]cnc2C12CCN(C(=O)c1ccc[nH]1)CC2 was -15.83%.
Result for CC(C)c1cncnc1N1CC[C@H](N2CCOCC2)[C@H](CCCO)C1 was 36.43%.
Result for Cc1cc(C(=O)N[C@H](C)c2onc(C)c2C(=O)O)c(C)o1.Cl was -2.977% & 0.3648%.
Result for O=C(Nc1cccc(OCc2cccc(F)c2)c1)C1COCCO1 (stereo not given) was 3.479%.
Result for CN1CCOC(CNCCOc2cccc(C#N)c2)C1 (stereo not given) was -5.354%.
Result for Cc1nc(Nc2ncccn2)cc(C2CN(C(=O)c3cccnc3)C2)n1 was 25.1%.
Result for Cc1ccc(CNC(=O)C2=NOC3(CCCNC3)C2)cc1 (stereo not given) was -28.5%.
Result for COc1ccc(N2CCN(C(=O)C(C)n3cc(Br)cn3)CC2)cc1 (stereo not given) was 49.58%.
Result for CN1CC(Nc2nc3c(cnn3-c3ccccc3)c(=O)[nH]2)CCC1=O (stereo not given) was -13.93%.

The last 4 entries again:

{"compound": "Cc1nc(Nc2ncccn2)cc(C2CN(C(=O)c3cccnc3)C2)n1", "percent effect": 25.1}
{"compound": "Cc1ccc(CNC(=O)C2=NOC3(CCCNC3)C2)cc1", "stereo": "stereo not given", "percent effect": -28.5}
{"compound": "COc1ccc(N2CCN(C(=O)C(C)n3cc(Br)cn3)CC2)cc1", "stereo": "stereo not given", "percent effect": 49.58}
{"compound": "CN1CC(Nc2nc3c(cnn3-c3ccccc3)c(=O)[nH]2)CCC1=O", "stereo": "stereo not given", "percent effect": -13.93}